Tested on: Acetylcholine
Assay: Activity against acetylcholine (II): inhibition of acetylcholine-induced saliva excretion
Type: in vivo, Beagle dogs
Details: dose 1 (g), intra-arterially, 1 min before acetylcholine
Protocol: Activity Against Acetylcholine (II)
Beagle dogs were anesthetized by intravenous administration of pentobarbital (35 mg/kg). The following experiment was conducted in accordance with the method of Sato et al. (Tohoku J. Exp. Med., 108, 377-388, 1982). The left lower jaw of each animal was incised to identify the submandibular gland, the duct through which saliva was excreted from that gland, and the artery nourishing the same gland. A polyethylene tube was first inserted into the excretory duct. Then, a cannula was inserted into the submandibular gland controlling artery and said gland was perfused with the arterial blood drawn from the femoral artery. The tube from the duct was connected to a drop counter and the number of drops of excreted saliva was recorded. The excretion of saliva was induced by intra-arterial administration of acetylcholine.
One minute before the acetylcholine administration, […] (0.1 ml) of a selected compound was administered intra-arterially and its ability to inhibit saliva excretion was examined.

CN1[C@@H]2CC[C@H]1C[C@@H](OC(=O)C(CO)c1ccccc1)C2 (stereo partly shown) [Atropine]
Percent inhibition (saliva excretion): 42.9%
